Source: publication PMC10644524
These are yes or no findings as the source states them, for the method shown. In cells and extracts the contact can be indirect. Some results given as binding are weak or reduced against the parent protein; the word gives no strength.

The chains behind the UniProt entries cited, without tags or fusion partners. Residues count along the entry.
UniProt O75581, residues 20-1613: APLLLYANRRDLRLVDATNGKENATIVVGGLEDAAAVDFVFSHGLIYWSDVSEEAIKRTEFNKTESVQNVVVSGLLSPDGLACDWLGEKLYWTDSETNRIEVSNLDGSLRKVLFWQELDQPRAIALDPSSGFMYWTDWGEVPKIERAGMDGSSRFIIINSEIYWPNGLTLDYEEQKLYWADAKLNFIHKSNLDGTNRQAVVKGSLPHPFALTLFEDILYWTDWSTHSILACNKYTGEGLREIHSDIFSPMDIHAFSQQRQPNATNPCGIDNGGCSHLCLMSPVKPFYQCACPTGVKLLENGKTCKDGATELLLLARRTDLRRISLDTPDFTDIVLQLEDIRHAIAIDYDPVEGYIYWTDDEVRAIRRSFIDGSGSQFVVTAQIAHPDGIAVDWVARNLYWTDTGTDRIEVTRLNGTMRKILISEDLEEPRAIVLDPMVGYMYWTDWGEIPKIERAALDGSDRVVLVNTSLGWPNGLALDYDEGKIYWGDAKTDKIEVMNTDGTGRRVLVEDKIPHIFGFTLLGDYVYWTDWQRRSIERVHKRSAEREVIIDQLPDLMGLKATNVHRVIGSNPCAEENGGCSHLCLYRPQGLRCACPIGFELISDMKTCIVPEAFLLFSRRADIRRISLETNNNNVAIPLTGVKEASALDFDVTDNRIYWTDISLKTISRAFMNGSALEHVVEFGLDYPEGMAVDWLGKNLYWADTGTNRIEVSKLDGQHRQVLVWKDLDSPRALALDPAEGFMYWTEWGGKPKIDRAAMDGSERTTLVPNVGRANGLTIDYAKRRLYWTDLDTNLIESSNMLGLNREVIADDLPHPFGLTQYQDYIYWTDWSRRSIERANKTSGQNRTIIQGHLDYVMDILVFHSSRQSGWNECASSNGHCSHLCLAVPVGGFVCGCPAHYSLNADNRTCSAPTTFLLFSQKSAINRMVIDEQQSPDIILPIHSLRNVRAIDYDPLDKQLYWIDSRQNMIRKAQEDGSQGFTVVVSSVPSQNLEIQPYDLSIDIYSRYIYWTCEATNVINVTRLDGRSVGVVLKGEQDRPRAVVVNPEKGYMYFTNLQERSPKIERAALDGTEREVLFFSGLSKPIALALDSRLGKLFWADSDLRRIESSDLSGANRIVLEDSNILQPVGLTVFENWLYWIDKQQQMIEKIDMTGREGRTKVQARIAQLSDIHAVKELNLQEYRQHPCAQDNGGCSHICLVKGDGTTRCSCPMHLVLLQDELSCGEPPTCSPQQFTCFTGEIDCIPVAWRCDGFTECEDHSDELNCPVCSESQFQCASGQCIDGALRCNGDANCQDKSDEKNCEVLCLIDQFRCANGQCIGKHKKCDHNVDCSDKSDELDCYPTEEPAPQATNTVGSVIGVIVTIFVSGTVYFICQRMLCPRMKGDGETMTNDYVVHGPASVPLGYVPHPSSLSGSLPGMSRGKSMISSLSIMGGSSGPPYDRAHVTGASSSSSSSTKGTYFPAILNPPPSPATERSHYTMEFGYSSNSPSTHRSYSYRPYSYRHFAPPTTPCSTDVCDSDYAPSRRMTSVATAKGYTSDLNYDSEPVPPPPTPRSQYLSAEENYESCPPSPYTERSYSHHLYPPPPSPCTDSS
UniProt P18065, residues 36-325: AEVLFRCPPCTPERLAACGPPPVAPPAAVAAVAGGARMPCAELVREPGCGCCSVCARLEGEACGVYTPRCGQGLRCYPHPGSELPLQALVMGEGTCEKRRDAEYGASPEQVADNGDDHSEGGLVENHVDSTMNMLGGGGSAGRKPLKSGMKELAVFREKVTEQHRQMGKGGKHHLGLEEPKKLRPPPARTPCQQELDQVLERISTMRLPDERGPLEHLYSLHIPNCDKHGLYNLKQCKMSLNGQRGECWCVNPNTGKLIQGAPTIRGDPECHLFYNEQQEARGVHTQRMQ

Biological target: low-density lipoprotein receptor-related protein 6 (LRP6) (human (endogenous in HepG2)) (UniProt O75581)
Assay: co-IP; LRP6 antibodies (or corresponding IgG) on protein A/G plus-agarose; HepG2 whole-cell lysates (25 mmol/L HEPES, 150 mmol/L NaCl, 5 mmol/L EDTA, 1% Triton X-100, 10% glycerin), precleared with normal mouse IgG, overnight at 4 °C; cells transfected with IGFBP2 plasmid or the vector control; blot with LRP6 or IGFBP2 antibodies

| binding | Substance |
| --- | --- |
| binds | insulin-like growth factor-binding protein 2 (IGFBP2), endogenous in HepG2 control cells (from UniProt P18065 36-325) |
| binds | insulin-like growth factor-binding protein 2 (IGFBP2), overexpressed from pcDNA3.1 in HepG2 cells (from UniProt P18065 36-325) |
